Measurements taken from the supplement of paper PMC6411743.
± gives the standard deviation of the averaged measurements. Only a part is listed here, and it is no random draw.

Sequences of proteins named here, by UniProt entry; tags and fusion partners are left off. A change or cut given only in a name is not applied to a line headed by its entry.
UniProt Q9H977: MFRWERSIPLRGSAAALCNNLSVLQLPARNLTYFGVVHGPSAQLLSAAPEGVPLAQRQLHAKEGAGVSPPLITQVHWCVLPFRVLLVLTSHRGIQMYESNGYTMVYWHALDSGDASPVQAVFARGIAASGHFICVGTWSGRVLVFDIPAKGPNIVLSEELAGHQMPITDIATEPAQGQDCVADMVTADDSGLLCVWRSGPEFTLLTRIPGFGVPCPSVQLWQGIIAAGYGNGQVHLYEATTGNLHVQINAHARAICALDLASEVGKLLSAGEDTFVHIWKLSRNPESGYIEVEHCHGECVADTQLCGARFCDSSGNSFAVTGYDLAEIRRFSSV
UniProt Q9H3H1: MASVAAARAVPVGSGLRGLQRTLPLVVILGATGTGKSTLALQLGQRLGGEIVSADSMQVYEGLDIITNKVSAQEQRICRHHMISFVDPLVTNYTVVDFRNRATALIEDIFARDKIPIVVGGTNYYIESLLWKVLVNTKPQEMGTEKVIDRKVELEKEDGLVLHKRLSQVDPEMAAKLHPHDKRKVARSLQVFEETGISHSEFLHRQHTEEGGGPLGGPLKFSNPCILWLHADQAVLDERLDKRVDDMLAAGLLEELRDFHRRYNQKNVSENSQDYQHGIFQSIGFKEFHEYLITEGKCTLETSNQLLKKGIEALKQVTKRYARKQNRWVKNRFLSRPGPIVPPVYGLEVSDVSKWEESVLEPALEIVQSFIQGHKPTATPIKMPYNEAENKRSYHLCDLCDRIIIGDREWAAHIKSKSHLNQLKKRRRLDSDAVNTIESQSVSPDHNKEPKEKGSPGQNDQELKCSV
UniProt Q9HCJ3: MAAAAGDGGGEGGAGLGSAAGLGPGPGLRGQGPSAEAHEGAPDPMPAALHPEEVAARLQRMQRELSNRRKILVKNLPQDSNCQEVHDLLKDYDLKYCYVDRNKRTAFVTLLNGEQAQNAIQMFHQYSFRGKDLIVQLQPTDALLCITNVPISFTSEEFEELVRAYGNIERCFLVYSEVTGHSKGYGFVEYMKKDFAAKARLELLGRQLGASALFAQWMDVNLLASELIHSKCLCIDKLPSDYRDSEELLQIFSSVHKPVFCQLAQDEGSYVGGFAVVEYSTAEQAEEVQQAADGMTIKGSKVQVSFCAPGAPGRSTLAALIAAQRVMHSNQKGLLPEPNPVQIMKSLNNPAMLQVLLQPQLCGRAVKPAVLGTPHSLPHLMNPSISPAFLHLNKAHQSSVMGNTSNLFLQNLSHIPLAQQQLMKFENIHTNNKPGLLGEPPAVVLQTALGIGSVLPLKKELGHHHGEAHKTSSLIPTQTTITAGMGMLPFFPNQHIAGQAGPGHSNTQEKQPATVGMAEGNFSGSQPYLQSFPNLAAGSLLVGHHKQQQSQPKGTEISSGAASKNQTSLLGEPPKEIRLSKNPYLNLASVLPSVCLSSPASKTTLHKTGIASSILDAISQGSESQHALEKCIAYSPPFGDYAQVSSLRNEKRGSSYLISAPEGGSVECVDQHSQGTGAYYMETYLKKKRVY
UniProt Q9H2G9: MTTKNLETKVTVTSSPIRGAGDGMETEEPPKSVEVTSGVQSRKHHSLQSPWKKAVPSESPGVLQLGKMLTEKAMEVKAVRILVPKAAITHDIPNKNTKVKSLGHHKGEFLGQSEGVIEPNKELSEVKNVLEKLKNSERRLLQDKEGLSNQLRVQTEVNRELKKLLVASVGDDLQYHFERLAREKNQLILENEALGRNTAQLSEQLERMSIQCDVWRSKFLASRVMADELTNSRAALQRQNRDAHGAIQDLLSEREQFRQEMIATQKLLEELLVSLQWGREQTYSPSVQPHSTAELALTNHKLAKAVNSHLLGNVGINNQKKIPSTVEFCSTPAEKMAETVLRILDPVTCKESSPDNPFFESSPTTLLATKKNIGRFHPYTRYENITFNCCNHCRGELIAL
UniProt Q9H9Y6, whole entry: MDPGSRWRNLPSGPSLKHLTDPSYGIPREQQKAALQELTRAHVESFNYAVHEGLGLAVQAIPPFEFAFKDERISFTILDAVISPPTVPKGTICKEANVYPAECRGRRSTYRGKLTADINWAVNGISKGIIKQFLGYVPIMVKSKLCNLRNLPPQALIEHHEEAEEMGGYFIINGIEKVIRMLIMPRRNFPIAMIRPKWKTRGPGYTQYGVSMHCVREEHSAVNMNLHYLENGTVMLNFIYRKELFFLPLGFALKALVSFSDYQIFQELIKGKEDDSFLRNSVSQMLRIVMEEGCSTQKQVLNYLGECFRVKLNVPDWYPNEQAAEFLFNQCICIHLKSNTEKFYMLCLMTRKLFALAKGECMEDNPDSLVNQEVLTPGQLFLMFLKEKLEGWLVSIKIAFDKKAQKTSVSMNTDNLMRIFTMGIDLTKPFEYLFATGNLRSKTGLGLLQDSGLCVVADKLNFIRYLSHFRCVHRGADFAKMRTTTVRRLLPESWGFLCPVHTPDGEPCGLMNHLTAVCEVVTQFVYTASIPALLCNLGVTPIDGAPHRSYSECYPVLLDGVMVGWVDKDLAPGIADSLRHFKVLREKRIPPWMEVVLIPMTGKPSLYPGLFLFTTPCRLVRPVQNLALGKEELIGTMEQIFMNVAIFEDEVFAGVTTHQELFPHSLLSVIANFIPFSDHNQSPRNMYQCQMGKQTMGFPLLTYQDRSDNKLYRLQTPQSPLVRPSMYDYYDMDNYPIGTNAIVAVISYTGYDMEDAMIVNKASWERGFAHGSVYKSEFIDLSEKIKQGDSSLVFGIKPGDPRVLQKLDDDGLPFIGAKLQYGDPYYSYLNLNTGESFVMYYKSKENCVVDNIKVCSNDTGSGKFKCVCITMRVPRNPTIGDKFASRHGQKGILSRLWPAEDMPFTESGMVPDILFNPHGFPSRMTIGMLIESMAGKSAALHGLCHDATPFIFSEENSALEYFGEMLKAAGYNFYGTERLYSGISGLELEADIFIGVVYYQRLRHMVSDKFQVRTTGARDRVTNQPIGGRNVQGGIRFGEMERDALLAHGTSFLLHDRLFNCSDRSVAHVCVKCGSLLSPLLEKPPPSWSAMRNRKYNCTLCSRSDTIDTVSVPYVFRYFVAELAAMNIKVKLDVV
UniProt Q9H7P9: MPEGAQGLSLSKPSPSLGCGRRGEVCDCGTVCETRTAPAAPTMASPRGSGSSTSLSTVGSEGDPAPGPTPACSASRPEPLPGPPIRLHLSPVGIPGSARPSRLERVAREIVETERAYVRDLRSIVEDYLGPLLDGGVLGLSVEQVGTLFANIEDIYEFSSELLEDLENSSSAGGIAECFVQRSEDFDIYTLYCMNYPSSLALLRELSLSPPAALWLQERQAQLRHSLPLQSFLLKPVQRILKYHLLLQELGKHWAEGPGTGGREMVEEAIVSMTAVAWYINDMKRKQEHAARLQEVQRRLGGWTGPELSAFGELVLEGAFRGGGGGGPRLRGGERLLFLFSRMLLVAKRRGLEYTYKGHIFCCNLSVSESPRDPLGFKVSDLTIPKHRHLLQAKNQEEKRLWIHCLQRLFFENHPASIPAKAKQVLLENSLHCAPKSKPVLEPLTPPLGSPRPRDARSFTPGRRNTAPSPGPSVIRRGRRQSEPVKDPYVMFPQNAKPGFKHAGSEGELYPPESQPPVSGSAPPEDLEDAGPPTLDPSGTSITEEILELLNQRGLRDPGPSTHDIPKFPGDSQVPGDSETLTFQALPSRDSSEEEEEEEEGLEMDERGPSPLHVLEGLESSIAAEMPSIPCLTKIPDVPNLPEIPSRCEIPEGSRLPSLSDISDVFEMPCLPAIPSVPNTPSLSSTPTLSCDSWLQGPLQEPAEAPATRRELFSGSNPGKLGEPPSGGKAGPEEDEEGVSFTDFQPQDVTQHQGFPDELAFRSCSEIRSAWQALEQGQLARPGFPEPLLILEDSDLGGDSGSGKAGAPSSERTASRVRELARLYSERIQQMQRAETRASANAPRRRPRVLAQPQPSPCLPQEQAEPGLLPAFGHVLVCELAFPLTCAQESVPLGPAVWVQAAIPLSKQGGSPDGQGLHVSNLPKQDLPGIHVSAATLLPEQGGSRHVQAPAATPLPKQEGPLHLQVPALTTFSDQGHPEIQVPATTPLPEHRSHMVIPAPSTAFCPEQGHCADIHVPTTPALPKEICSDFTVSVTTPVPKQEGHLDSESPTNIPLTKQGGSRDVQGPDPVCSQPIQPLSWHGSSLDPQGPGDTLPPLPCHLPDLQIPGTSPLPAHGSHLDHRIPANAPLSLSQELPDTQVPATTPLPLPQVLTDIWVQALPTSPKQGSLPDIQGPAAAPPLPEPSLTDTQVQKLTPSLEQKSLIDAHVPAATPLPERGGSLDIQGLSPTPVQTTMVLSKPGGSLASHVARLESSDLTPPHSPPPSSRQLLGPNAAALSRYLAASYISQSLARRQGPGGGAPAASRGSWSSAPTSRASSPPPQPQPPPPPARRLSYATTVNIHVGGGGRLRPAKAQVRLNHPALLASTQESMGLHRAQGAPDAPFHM
UniProt Q9HC07: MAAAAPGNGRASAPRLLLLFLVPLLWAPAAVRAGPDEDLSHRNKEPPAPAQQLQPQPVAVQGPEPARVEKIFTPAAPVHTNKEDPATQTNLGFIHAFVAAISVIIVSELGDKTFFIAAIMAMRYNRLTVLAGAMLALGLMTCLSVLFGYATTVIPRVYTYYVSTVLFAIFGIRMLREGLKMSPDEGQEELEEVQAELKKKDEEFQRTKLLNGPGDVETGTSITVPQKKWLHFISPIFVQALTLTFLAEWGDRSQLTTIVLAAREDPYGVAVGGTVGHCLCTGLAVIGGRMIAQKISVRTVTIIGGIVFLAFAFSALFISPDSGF
UniProt Q9C0B0: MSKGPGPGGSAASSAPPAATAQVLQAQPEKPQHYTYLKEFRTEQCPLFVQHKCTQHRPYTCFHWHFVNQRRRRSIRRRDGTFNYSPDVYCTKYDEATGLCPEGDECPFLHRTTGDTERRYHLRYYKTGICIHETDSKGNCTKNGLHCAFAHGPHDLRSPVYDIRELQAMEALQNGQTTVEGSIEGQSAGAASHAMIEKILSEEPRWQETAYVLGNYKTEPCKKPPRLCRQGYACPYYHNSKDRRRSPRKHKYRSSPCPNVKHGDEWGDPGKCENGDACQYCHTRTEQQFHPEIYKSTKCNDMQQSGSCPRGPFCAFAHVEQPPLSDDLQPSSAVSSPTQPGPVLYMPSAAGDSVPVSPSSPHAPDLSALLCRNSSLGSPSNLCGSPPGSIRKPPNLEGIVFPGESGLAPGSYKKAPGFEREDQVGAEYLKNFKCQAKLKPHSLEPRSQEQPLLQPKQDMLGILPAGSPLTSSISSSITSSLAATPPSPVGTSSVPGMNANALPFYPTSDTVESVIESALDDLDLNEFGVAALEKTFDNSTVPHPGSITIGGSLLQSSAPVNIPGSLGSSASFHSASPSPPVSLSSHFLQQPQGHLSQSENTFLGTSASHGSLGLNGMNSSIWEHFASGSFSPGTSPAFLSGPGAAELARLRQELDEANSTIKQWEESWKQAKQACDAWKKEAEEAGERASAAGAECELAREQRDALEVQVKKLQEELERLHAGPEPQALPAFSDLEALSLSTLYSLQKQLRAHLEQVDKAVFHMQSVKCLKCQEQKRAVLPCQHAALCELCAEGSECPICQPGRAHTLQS
UniProt Q9H081: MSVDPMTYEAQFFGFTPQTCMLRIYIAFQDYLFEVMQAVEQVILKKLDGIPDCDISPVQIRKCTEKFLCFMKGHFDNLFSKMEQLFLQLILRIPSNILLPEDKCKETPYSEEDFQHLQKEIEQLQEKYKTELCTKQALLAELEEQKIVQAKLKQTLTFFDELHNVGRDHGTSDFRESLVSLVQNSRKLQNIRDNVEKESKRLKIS
UniProt Q9GZR2: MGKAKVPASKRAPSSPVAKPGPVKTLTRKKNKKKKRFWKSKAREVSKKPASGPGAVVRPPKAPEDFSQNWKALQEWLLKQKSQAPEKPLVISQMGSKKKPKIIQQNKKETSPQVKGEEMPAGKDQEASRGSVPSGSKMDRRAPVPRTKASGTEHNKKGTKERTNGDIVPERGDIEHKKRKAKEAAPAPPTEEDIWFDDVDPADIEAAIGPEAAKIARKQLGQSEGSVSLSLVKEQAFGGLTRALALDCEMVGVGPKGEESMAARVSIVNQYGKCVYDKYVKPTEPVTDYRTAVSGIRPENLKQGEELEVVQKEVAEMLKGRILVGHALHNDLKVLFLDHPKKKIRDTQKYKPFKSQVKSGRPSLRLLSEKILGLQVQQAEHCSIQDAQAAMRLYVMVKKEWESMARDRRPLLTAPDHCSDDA
UniProt Q9H814, whole entry: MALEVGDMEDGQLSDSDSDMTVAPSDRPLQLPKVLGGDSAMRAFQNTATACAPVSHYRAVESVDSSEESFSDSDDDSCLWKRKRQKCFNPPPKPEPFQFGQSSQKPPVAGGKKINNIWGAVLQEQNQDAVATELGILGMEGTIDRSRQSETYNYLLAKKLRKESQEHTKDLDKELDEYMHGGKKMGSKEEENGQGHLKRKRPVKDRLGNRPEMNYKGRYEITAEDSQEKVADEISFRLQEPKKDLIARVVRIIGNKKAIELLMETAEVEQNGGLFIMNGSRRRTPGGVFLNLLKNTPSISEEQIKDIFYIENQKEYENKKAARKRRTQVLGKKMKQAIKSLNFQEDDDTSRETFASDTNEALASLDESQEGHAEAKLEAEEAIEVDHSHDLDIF

Compound: Nc1ncnc2c1ncn2[C@@H]1O[C@H](COP(=O)(O)OP(=O)(O)OP(=O)(O)O)[C@@H](O)[C@H]1O [adenosine triphosphate]
Assay: NP40-soluble protein abundance relative to vehicle (solubility fold change) (ratio); higher = more soluble protein in presence of ATP
In short: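 Across three independent experiments, values are fold changes against the detergent-processed vehicle for each replicate, based on vsn-normalised intensities. The samples were Jurkat crude lysate treated with eight concentrations (0.1 to 10 mM) for 10 min at room temperature and then 3 min at 37 °C. Lysate was solubilised with 0.8% NP40 and benzonase, ultracentrifuged, and the supernatant analysed by TMT-labelled LC-MS/MS.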

Target | NP40-soluble protein abundance (concentration: 1mM) | NP40-soluble protein abundance (concentration: 2mM) | NP40-soluble protein abundance (concentration: 4mM) | NP40-soluble protein abundance (concentration: 6mM) | NP40-soluble protein abundance (concentration: 8mM) | NP40-soluble protein abundance (concentration: 10mM)
UniProt Q9H2Y7 and related entries | 1.03 ± 0.18 | 1.1 ± 0.21 | 1.13 ± 0.16 | 1.1 ± 0.23 | 1.1 ± 0.12 | 1.16 ± 0.21
UniProt Q9H074 and related entries | 0.887 ± 0.052 | 0.946 ± 0.083 | 0.927 ± 0.044 | 0.909 ± 0.078 | 0.886 ± 0.021 | 0.876 ± 0.073
WDR54 (UniProt Q9H977) | 1.03 ± 0.12 | 1.04 ± 0.14 | 1.06 ± 0.17 | 0.977 ± 0.12 | 0.995 ± 0.12 | 1.03 ± 0.16
UniProt Q9H9E3 and related entries | 1.017 ± 0.0098 | 0.982 ± 0.032 | 0.9787 ± 0.0091 | 0.979 ± 0.028 | 0.983 ± 0.012 | 0.972 ± 0.026
UniProt Q9H3H1 and related entries | 1.03 ± 0.031 | 1.06 ± 0.05 | 1.01 ± 0.045 | 1.02 ± 0.056 | 1.04 ± 0.06 | 0.988 ± 0.032
UniProt Q9HBK9 | 1.02 ± 0.11 | 0.997 ± 0.069 | 1.01 ± 0.088 | 0.977 ± 0.14 | 0.959 ± 0.052 | 0.965 ± 0.029
UniProt Q9HAF1 and related entries | 1.17 ± 0.079 | 1.22 ± 0.11 | 1.27 ± 0.059 | 1.37 ± 0.14 | 1.4 ± 0.099 | 1.37 ± 0.23
UniProt Q9HCJ3 and related entries | 0.924 ± 0.04 | 0.931 ± 0.042 | 0.979 ± 0.038 | 0.85 ± 0.047 | 0.956 ± 0.035 | 0.983 ± 0.03
RAB33B (UniProt Q9H082) | 1 ± 0.038 | 1.01 ± 0.028 | 0.959 ± 0.022 | 0.937 ± 0.069 | 0.96 ± 0.041 | 0.956 ± 0.037
BLZF1 (UniProt Q9H2G9) | 0.962 ± 0.1 | 1 ± 0.11 | 1.1 ± 0.077 | 1.13 ± 0.078 | 1.07 ± 0.1 | 1.01 ± 0.067
UniProt Q9H9Y6 and related entries | 1.16 ± 0.12 | 1.18 ± 0.11 | 1.28 ± 0.07 | 1.22 ± 0.095 | 1.34 ± 0.077 | 1.34 ± 0.081
UniProt Q9H7P9 and related entries | 0.96 ± 0.084 | 0.982 ± 0.06 | 0.991 ± 0.051 | 1 ± 0.088 | 0.944 ± 0.047 | 0.966 ± 0.034
TMEM165 (UniProt Q9HC07) | 0.961 ± 0.05 | 0.973 ± 0.02 | 0.96 ± 0.031 | 1 ± 0.053 | 0.993 ± 0.038 | 0.94 ± 0.023
UNK (UniProt Q9C0B0) | 1.08 ± 0.061 | 1.1 ± 0.035 | 1.13 ± 0.044 | 1.19 ± 0.054 | 1.131 ± 0.0036 | 1.14 ± 0.018
MIS12 (UniProt Q9H081) | 0.961 ± 0.17 | 0.897 ± 0.12 | 0.975 ± 0.04 | 0.944 ± 0.17 | 0.948 ± 0.13 | 0.845 ± 0.18
REXO4 (UniProt Q9GZR2) | 1.03 ± 0.032 | 1.04 ± 0.024 | 1.07 ± 0.019 | 1.09 ± 0.015 | 1.11 ± 0.035 | 1.06 ± 0.037
PHAX (UniProt Q9H814) | 0.967 ± 0.023 | 0.98 ± 0.018 | 0.958 ± 0.014 | 1.01 ± 0.018 | 0.971 ± 0.026 | 0.979 ± 0.019

Record cards (already shown). Values in the order: NP40-soluble protein abundance (concentration: 1mM) | NP40-soluble protein abundance (concentration: 2mM) | NP40-soluble protein abundance (concentration: 4mM) | NP40-soluble protein abundance (concentration: 6mM) | NP40-soluble protein abundance (concentration: 8mM) | NP40-soluble protein abundance (concentration: 10mM)
UniProt Q9H2Y7 and related entries as listed: 1.03 ± 0.18 | 1.1 ± 0.21 | 1.13 ± 0.16 | 1.1 ± 0.23 | 1.1 ± 0.12 | 1.16 ± 0.21
RAB33B (UniProt Q9H082) as listed: 1 ± 0.038 | 1.01 ± 0.028 | 0.959 ± 0.022 | 0.937 ± 0.069 | 0.96 ± 0.041 | 0.956 ± 0.037
